One substance from article PMC4467402 can be followed below.

Sequences of proteins named here, by UniProt entry; tags and fusion partners are left off.
UniProt Q96GD4: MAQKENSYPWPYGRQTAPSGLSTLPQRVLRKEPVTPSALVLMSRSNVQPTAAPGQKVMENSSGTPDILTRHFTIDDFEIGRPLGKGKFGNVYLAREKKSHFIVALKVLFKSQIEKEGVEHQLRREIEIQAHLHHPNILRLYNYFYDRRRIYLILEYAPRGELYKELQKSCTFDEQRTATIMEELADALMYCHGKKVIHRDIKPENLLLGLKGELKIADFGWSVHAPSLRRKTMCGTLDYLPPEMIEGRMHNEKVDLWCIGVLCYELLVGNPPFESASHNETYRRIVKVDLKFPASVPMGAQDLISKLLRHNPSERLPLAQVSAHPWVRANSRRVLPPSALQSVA

These are yes or no findings as the source states them, for the method shown. Binding seen in cells or lysates may run through a third protein. Some results given as binding are weak or reduced against the parent protein; the word gives no strength. Where a sequence is shown, tags or fusion partners need not be part of it.

This assay concerns the target T1, Flag-ETS-1 (UniProt P14921).
T1 sequence: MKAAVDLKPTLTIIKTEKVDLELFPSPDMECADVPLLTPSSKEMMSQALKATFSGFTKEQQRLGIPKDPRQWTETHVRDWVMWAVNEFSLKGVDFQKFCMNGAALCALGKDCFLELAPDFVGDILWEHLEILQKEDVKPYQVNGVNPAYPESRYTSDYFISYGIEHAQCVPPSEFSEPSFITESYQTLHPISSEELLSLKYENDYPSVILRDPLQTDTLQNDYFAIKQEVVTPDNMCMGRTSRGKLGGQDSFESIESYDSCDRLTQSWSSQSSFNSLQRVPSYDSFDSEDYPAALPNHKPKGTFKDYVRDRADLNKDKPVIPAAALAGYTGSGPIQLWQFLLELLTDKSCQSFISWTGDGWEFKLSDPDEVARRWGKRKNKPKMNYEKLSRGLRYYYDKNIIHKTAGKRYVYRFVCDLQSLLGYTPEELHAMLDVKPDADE
As to the kind of experiment: co-IP; Saos-2 (p53-/-) cells transfected with tagged ETS-1 and AK-B, without or with p53; immunoprecipitation of Flag-ETS-1, blot for AK-B; lysis and washes in RIPA buffer (10 mM Tris pH 7.5, 150 mM NaCl, 2 mM EDTA, 1% NP40), 4°C.

Take “Aurora kinase B (from UniProt Q96GD4 1-344) (enzyme)”: the binding entry is reported as “binds”.
